# This is one part of the list.
# B1: Aap arpt (Staphylococcus epidermidis) (protein)
# chain: NNEAPQMSSTLQAEEGSNAEAPQSEPTKAEEGGNAEAAQSEPTKAEEGGNAEAPQSEPTKAEEGGNAEAAQSEPTKTEEGSNVKAAQSEPTKAEEGSNAEAPQSEPTKTEEGSNAKAAQSEPTKAEEGGNAEAAQSEPTKTEEGSNAEAPQSEPTKAEEGGYAEAPQSEPTKTEEGGNAEAPNVPTIKA
# Assays:
# Assay in all cases: glycan array binding signal (z-score within array); higher = stronger binding
# Conditions in all cases: glycan notation: IUPAC condensed, linker removed
# [1] = target: Gal(b1-4)GlcNAc(b1-3)Gal(b1-4)GlcNAc(b1-3)Gal(b1-4)GlcNAc(b1-3)Gal(b1-4)GlcNAc(b1-2)Man(a1-3)[Gal(b1-4)GlcNAc(b1-3)Gal(b1-4)GlcNAc(b1-3)Gal(b1-4)GlcNAc(b1-3)Gal(b1-4)GlcNAc(b1-2)Man(a1-6)]Man(b1-4)GlcNAc(b1-4)[Fuc(a1-6)]GlcNAc
# Summary of the method: (§1)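 The Consortium for Functional Glycomics database supplied 3228 glycan arrays, of which those lacking an available protein sequence were dropped. The binding signal, a within-array Z-score, was averaged across arrays of the same protein sequence and across linkers. Negative scores can be read as non-binding.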
# [2] = target: Gal(b1-4)GlcNAc(b1-3)Gal(b1-4)GlcNAc(b1-3)Gal(b1-4)GlcNAc(b1-3)Gal(b1-4)GlcNAc(b1-2)[Gal(b1-4)GlcNAc(b1-3)Gal(b1-4)GlcNAc(b1-3)Gal(b1-4)GlcNAc(b1-3)Gal(b1-4)GlcNAc(b1-6)]Man(a1-6)[Gal(b1-4)GlcNAc(b1-3)Gal(b1-4)GlcNAc(b1-3)Gal(b1-4)GlcNAc(b1-3)Gal(b1-4)GlcNAc(b1-2)Man(a1-3)]Man(b1-4)GlcNAc(b1-4)[Fuc(a1-6)]GlcNAc
# Summary of the method: as §1
# [3] = target: Gal(b1-4)GlcNAc(b1-3)Gal(b1-4)GlcNAc(b1-3)Gal(b1-4)GlcNAc(b1-3)Gal(b1-4)GlcNAc(b1-3)Gal(b1-4)GlcNAc(b1-2)Man(a1-3)[Gal(b1-4)GlcNAc(b1-3)Gal(b1-4)GlcNAc(b1-3)Gal(b1-4)GlcNAc(b1-3)Gal(b1-4)GlcNAc(b1-3)Gal(b1-4)GlcNAc(b1-2)Man(a1-6)]Man(b1-4)GlcNAc(b1-4)GlcNAc
# Summary of the method: as §1
# [4] = target: Gal(b1-4)GlcNAc(b1-3)Gal(b1-4)GlcNAc(b1-3)Gal(b1-4)GlcNAc(b1-3)Gal(b1-4)GlcNAc(b1-3)Gal(b1-4)GlcNAc(b1-2)Man(a1-3)[Gal(b1-4)GlcNAc(b1-3)Gal(b1-4)GlcNAc(b1-3)Gal(b1-4)GlcNAc(b1-3)Gal(b1-4)GlcNAc(b1-3)Gal(b1-4)GlcNAc(b1-2)Man(a1-6)]Man(b1-4)GlcNAc(b1-4)[Fuc(a1-6)]GlcNAc
# Summary of the method: as §1
# [5] = target: Gal(b1-4)GlcNAc(b1-3)Gal(b1-4)GlcNAc(b1-3)Gal(b1-4)GlcNAc(b1-3)Gal(b1-4)GlcNAc(b1-3)Gal(b1-4)GlcNAc(b1-2)[Gal(b1-4)GlcNAc(b1-3)Gal(b1-4)GlcNAc(b1-3)Gal(b1-4)GlcNAc(b1-3)Gal(b1-4)GlcNAc(b1-3)Gal(b1-4)GlcNAc(b1-6)]Man(a1-6)[Gal(b1-4)GlcNAc(b1-3)Gal(b1-4)GlcNAc(b1-3)Gal(b1-4)GlcNAc(b1-3)Gal(b1-4)GlcNAc(b1-3)Gal(b1-4)GlcNAc(b1-2)Man(a1-3)]Man(b1-4)GlcNAc(b1-4)[Fuc(a1-6)]GlcNAc
# Summary of the method: as §1
# [6] = target: Gal(b1-4)GlcNAc(b1-3)Gal(b1-4)GlcNAc(b1-3)Gal(b1-4)GlcNAc(b1-3)Gal(b1-4)GlcNAc(b1-3)Gal(b1-4)GlcNAc(b1-3)Gal(b1-4)GlcNAc(b1-2)Man(a1-3)[Gal(b1-4)GlcNAc(b1-3)Gal(b1-4)GlcNAc(b1-3)Gal(b1-4)GlcNAc(b1-3)Gal(b1-4)GlcNAc(b1-3)Gal(b1-4)GlcNAc(b1-3)Gal(b1-4)GlcNAc(b1-2)Man(a1-6)]Man(b1-4)GlcNAc(b1-4)GlcNAc
# Summary of the method: as §1
# [7] = target: Gal(b1-4)GlcNAc(b1-3)Gal(b1-4)GlcNAc(b1-3)GalNAc
# Summary of the method: as §1
# [8] = target: Gal(b1-4)GlcNAc(b1-3)Gal(b1-4)GlcNAc(b1-3)[Gal(b1-4)GlcNAc(b1-3)Gal(b1-4)GlcNAc(b1-6)]GalNAc
# Summary of the method: as §1
# [9] = target: Gal(b1-4)GlcNAc(b1-3)Gal(b1-4)GlcNAc(b1-6)[Gal(b1-3)]GalNAc
# Summary of the method: as §1
# [10] = target: Gal(b1-4)GlcNAc(b1-3)Gal(b1-4)[Fuc(a1-3)]GlcNAc(b1-3)Gal(b1-4)[Fuc(a1-3)]GlcNAc
# Summary of the method: as §1
# [11] = target: Gal(b1-4)GlcNAc(b1-3)GalNAc
# Summary of the method: as §1
# [12] = target: Gal(b1-4)GlcNAc(b1-3)[Fuc(a1-3)GlcNAc(b1-6)]Gal(b1-4)Glc
# Summary of the method: as §1
# [13] = target: Gal(b1-4)GlcNAc(b1-3)[Gal(b1-4)GlcNAc(b1-6)]Gal(b1-4)GlcNAc
# Summary of the method: as §1
# [14] = target: Gal(b1-4)GlcNAc(b1-3)[GlcNAc(b1-6)]Gal(b1-4)GlcNAc
# Summary of the method: as §1
# [15] = target: Gal(b1-4)GlcNAc(b1-6)Gal(b1-4)GlcNAc
# Summary of the method: as §1
# [16] = target: Gal(b1-4)GlcNAc(b1-6)GalNAc
# Summary of the method: as §1
# [17] = target: Gal(b1-4)GlcNAc(b1-6)[Gal(b1-3)]GalNAc
# Summary of the method: as §1
# [18] = target: Gal(b1-4)GlcNAc(b1-6)[Gal(b1-4)GlcNAc(b1-3)]GalNAc
# Summary of the method: as §1
# [19] = target: Gal(b1-4)GlcNAc6P
# Summary of the method: as §1
# [20] = target: Gal(b1-6)Gal
# Summary of the method: as §1
# [21] = target: Gal3S(b1-3)GalNAc
# Summary of the method: as §1
# [22] = target: Gal3S(b1-3)GlcNAc
# Summary of the method: as §1
# [23] = target: Gal3S(b1-3)[Fuc(a1-4)]GlcNAc
# Summary of the method: as §1
binder,measurement,setting,value
B1,glycan array binding signal (z-score),[1],0.176
same,glycan array binding signal (z-score),[2],0.939
same,glycan array binding signal (z-score),[3],-0.5
same,glycan array binding signal (z-score),[4],0.848
same,glycan array binding signal (z-score),[5],1.48
same,glycan array binding signal (z-score),[6],0.421
same,glycan array binding signal (z-score),[7],1.1
same,glycan array binding signal (z-score),[8],2.68
same,glycan array binding signal (z-score),[9],2.97
same,glycan array binding signal (z-score),[10],-1.06
same,glycan array binding signal (z-score),[11],-0.214
same,glycan array binding signal (z-score),[12],1.05
same,glycan array binding signal (z-score),[13],0.691
same,glycan array binding signal (z-score),[14],0.291
same,glycan array binding signal (z-score),[15],-0.155
same,glycan array binding signal (z-score),[16],0.387
same,glycan array binding signal (z-score),[17],-0.651
same,glycan array binding signal (z-score),[18],-0.307
same,glycan array binding signal (z-score),[19],-0.102
same,glycan array binding signal (z-score),[20],-0.552
same,glycan array binding signal (z-score),[21],0.361
same,glycan array binding signal (z-score),[22],-1.37
same,glycan array binding signal (z-score),[23],0.93

# Reprinted at random: 2 entries already listed, in no set order.
binder,measurement,setting,value
B1,glycan array binding signal (z-score),[16],0.387
same,glycan array binding signal (z-score),[12],1.05
